Here are results for 107 sequences from PubChem BioAssay AID1508600 (Functional Genomics Laboratory (NCATS/FGL), 2020).

Screen size: about 53,000 sequences; about 3,700 (7%) were called active.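 The calls were made as follows: active = gene knockdowns whose robust z-score for IL-1 alpha signal is at least 2 or at most -2, so actives lie on both sides; inactive = the rest.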 Some of the results follow.

The experiment is described as follows: Components of the Cytosolic LPS Sensing Pathway: Gene Identification via Genome-wide siRNA Screen.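 Also: robust z of the log signal after scaling to non-targeting control siRNA wells of the plate.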 The conditions noted are these: RAW264.7 macrophages, IL-1a HTRF, actives lie on both sides, screened at 100 nM (by protocol), cells primed 5 h with Pam3CSK4 first. In a few lines: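 Knockdown: 100 nM siRNA, 48h, RAW264.7. Stimulation: Pam3CSK4 5 h, then LipidA via TransIT-TKO 24 h. Output: supernatant IL-1a HTRF, negative-control-normalized, log robust z-score; viability by CellTiter-Glo.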
(In general: TR-FRET usually uses a lanthanide donor and a delayed reading to cut background.)
With GGGCUCUUUGAAGUUGGAUTT against Rpe65, the z-score is inactive: -0.393.
Regarding GGUGCCCGAAGUUAUGUUGTT against Ppp1r3f, the z-score is inactive: 0.909.
In the case of CCCUAAUGAAUGGUCUCAUTT against Tmem74 it was inactive: -0.176; in that of GCCUUUAGACUAAACAGCCTT against Slc7a6os, inactive: -0.54; in that of GGCGGUUCCCUCAGAAAAUTT against Pias1, inactive: -0.0759.
Next, GCCUCAGUACAAGGUAGCUTT against Slc30a3: inactive: -0.318; GGUCAAAGUCAAAGUUUUGTT against Crybg1: inactive: 1.98.
Next, GGUGAAAACAAUGACUUUGTT against Zbtb44: inactive: 0.256; GGGACUUAUGUCCAGGAAGTT against Agap3: inactive: -1.09.
On to GGGUACAGUUAGAUUUUUUTT against Dut, for which the z-score is inactive: -0.9.
With GGUGUCCUUAAGUUUGCCCTT against Grcc10, the z-score is inactive: -0.735.
In the case of CCUUUCGUCAUGGUAUUAGTT against Taf3 it was inactive: 0.414.
For the sequence GGAAGACAUCAAGAUGUAATT against Rp1l1, the z-score is inactive: -1.28.
Next, GGGAUGGAUCAUAGGAUUCTT against Taldo1: inactive: 0.192; AAGCACAAACUCACAGCCCTT against Hoxa4: inactive: 0.0866; GGAAAGAAAGGAGAGGAGGTT against Tmem18: inactive: -1.1.
As to GGAGAAAAUCAAACCAGAUTT against Ddx19b, the z-score is inactive: 0.823.
In the case of GGGUAAUGGGCCAGUAUCATT against Fam229b it was active: -2.92; in that of GGAUGCAUGGCACAGCUUUTT against Olfr905, inactive: 1.15; in that of GGACAAAAUCACCUCACUUTT against Olfr1135, active: -3.29.
Next, GCGAAUUUGAGUUGAGGCUTT against Bmp2: inactive: -0.116; CCAGUGGAAAUAACUUGUGTT against Fam53a: inactive: 1.58; CCAUCAAACAGAUCUUAUUTT against Ube2i: inactive: -0.0948.
As for GCGACAACGAUUUUGAAAUTT against Rsu1, the z-score was inactive: 0.158.
In the case of UUCUGUCCAUCGUGAUCAATT against Sctr, the z-score was inactive: -0.422.
Next, GGAUUUGGAGUAGAUCAAUTT against Tial1: inactive: 0.638.
As to GCCAAACAUUGGUGGACAUTT against H2-D1, the z-score is inactive: 0.835.
In the case of GGAACUGAAAUUCAGUUGGTT against Azin1 it was inactive: 0.218; in that of CCUGCUCAAAGUAAGUUACTT against Ces5a, inactive: -0.938.
In the case of GGAGAGUUGAUGUUUGAUGTT against Paxip1, the z-score was inactive: -0.625.
Consider GGUGAUCUUAGAUUUGAUUTT against Qsox2, for which the z-score was inactive: -0.401.
CUUUUGGUAUUGCAGAAUGTT against Olfr972: the z-score is inactive: -1.92.
On to CCAUUCCCAAUUGGUGUGATT against Olfr435, for which the z-score is inactive: -0.893.
In the case of GGGCUGCAUAUGACAAGGUTT against Dnajc17 it was inactive: -0.279.
In the case of GGGUAAUAGACCAUUUCUUTT against Olfr124 it was inactive: 0.255.
GGAAGGCAUAUGUUUGUGUTT against Asf1a: the z-score is inactive: 1.4.
As to GGAGCUGGAGUACGACUACTT against Tmem30b, the z-score was inactive: -0.891.
Take CCAUAGUGGAAUCAAGGCUTT against Olfr1079: the z-score was inactive: -0.318.
Next, CCAUGAGCGGAUAAGACUCTT against Zfyve1: inactive: 0.108; GGAAUGUGAAGAGGGCUUUTT against Olfr1341: inactive: 1.4; GUCCAUCAGCAGCUCAAUGTT against Ifna5: inactive: -0.655.
Take CGUAUUCCCUAGUUUCAGATT against Kir3dl2: the z-score is inactive: -0.753.
GGAAUUCAGGAGUCUCUUUTT against Elavl4: the z-score was inactive: -0.226.
Next, GCCAGGAAUGCUAUUCUCGTT against Lrg1: active: -2.26.
Next, CGGAUAGUGAAAUCGCUCUTT against Copz1: inactive: -0.00672; GGCAUGACAUGUAGAUGGCTT against Aldh3b3: active: 2.17.
Consider GGAGAUUCGGACAAAGUGATT against Rhcg, for which the z-score is inactive: -1.31.
In the case of CCCAAUAAUGAGAAGCGGCTT against Sh2d1b2 it was inactive: -0.071.
In the case of “GGAAACCAAUAACUGUUUATT against C130073F10Rik” it was inactive: 0.501; in that of GGCAUCGAUUACAUAAGUUTT against Oxr1, inactive: 0.252; in that of CCAAAUUAACAGGGCUUUGTT against Poglut1, inactive: 0.452.
Next, GGAAGAGAAGCUGAACAAGTT against Gja1: active: 2.53; GGUGGCCUUACAAAUGCCATT against Dph1: inactive: 0.923; GGUGUUGUUUUACUUCUGUTT against Timp2: inactive: -0.24.
With GGAACAGAGCCUUUCUCAGTT against Rnf183, the z-score was inactive: -0.153.
As for GGAAGUUCAAAUUUGAAUGTT against Etaa1, the z-score was inactive: -0.757.
Consider GGAGUAGUGUUGGAUAUAUTT against Mpv17l, for which the z-score is inactive: 1.73.
Next, AUGGACAGGACUUAGAUUCTT against Gm20815: inactive: 0.198; CCAAAGUAAACUGGAUGUUTT against Jaml: inactive: 0.484.
In the case of CCGCUCCGAACCAAGAAGATT against Tulp1 it was inactive: -0.00342; in that of GCCAUUAACUAUGGGACCUTT against Lck, inactive: -0.0729.
As to GGGAUACAGAUGUAUGAGUTT against Wdr54, the z-score was inactive: -1.19.
For GGAGCGAGAAGCUUUAGAATT against Ubxn1, the z-score is inactive: 0.61.
In the case of GCUGAUUCCGUGUCCCAACTT against Gng2 it was active: 3.42.
Next, GCUGGUCAGAGAUUUUGAUTT against Vti1b: inactive: 0.202; GGAUGAUCGGCACUAUAACTT against Otulin: inactive: 1.81; GGAGAGUAUCAGCAAUGAATT against Impg2: inactive: 1.02.
In the case of GGCUACCAUAGGUUUUAAUTT against Serinc4 it was inactive: 0.946.
Turning to GGAAUCCUUACAUCGCCCATT against Olfr669, the z-score was inactive: 0.0491.
Next, GGGUCUCCAAUCCCUCAGUTT against Kir3dl2: inactive: 0.489; GGCAGACAACUUCUACCAATT against Crim1: active: 2.52; GGUACACCUUGUUGGAAUUTT against Eif5a2: inactive: 0.707.
In the case of GGUAUUUCUUUGUGGUGCUTT against Ptch2 it was inactive: 1.45; in that of GGUGGGCUUUCAGUGCUACTT against Plppr3, inactive: 1.98; in that of GGACAAAGAAGGCAAGCAUTT against Mecp2, inactive: 1.1.
In the case of GGAUCCUCAGAUGAGUAUGTT against Ror1 it was inactive: -0.694.
On to CCUUUAAAAGUACCAACCCTT against B9d1, for which the z-score was inactive: 0.679.
Next, GCCACUAGUAUUAUGCUUCTT against Fhit: inactive: 0.569; GGCUACAUGAGCUGGAGAATT against Insr: active: 2.71.
GGAGAGAAAAACUUCUGGUTT against Nfx1: the z-score is inactive: 0.625.
In the case of CCAGCUGGCAAGGUUAUGATT against Akap8 it was inactive: 1.22; in that of GGAGAAAUCAAGCAAAGAUTT against Soat1, inactive: -0.0846.
In the case of GAGUGUGCAUUUUGUUAGUTT against Olfr136 it was inactive: 0.763; in that of GGAGGAAAAAAGGAUCCUGTT against Map3k2, inactive: 0.101.
In the case of GCAUGGUAUUAGAUGAUGATT against Nexn it was inactive: -1.69; in that of GGAUUCACACCGUGAAGGUTT against Rfesd, inactive: 0.0665.
In the case of GUCCUCUUCUGGUUCUCAGTT against Vmn1r52, the z-score was inactive: 0.246.
Next, “GUGACCUCAUCCAGAAAAUTT against Vmn1r190-ps”: inactive: -0.613; GCAGGUGACGUGAGGUUAATT against Zfp276: inactive: -0.121.
Turning to GUGCCACGACGGUUUUUUCTT against Avp, the z-score was inactive: -1.85.
Next, GCAAGUAAGACGGAACCCUTT against Ddx28: inactive: 0.783.
For the sequence CCUGUUAUGACCGUUCAUGTT against Prpf4, the z-score was inactive: 0.551.
As to GCUGAAUUUAGAGAGCACATT against Fam167b, the z-score is inactive: 0.763.
Next, GGAUCUUCGUGUCCAUUUATT against Ppfia2: inactive: -0.177.
In the case of GGUUUUUGGGAAUUGGCUUTT against Sfxn5 it was inactive: -0.0222.
For the sequence AUUCAACCUGUCAAUUGUCTT against H2ac8, the z-score is inactive: 0.266.
In the case of “GGACAUGAAAGAUGCAAUUTT against Olfr421-ps1” it was inactive: -1.29; in that of GGGCAUGACAUUCGAGACATT against Asic1, inactive: -1.64.
Next, GUUACCUCUGUGUUGUACUTT against Olfr60: inactive: -0.148.
In the case of GGAGGAGAGCAUUCCCAUUTT against Ddx6 it was inactive: -0.89; in that of GGCCCAAGAGAUUGAUCAATT against Ivd, inactive: -0.565; in that of CCUUGUCGCACAAAGAAUATT against Tm9sf1, inactive: -0.335.
In the case of GGAGUUUGACCACUACGUATT against P2ry4, the z-score was inactive: -0.0534.
In the case of GCUCGUUCUUCGACAUCUUTT against Stard3 it was inactive: -0.946.
As to CCCUACUUUGUACAUAGAUTT against Gbx2, the z-score was inactive: 1.91.
In the case of GGAAAACAAUUUCAGGCAATT against Zdhhc3 it was inactive: -1.07; in that of GGAAACAUGUCCUCACACATT against Top3b, inactive: 1.41.
